# Measured values as given in PMC8782888.
# Sequences of proteins named here, by UniProt entry; tags and fusion partners are left off.
# UniProt P35240: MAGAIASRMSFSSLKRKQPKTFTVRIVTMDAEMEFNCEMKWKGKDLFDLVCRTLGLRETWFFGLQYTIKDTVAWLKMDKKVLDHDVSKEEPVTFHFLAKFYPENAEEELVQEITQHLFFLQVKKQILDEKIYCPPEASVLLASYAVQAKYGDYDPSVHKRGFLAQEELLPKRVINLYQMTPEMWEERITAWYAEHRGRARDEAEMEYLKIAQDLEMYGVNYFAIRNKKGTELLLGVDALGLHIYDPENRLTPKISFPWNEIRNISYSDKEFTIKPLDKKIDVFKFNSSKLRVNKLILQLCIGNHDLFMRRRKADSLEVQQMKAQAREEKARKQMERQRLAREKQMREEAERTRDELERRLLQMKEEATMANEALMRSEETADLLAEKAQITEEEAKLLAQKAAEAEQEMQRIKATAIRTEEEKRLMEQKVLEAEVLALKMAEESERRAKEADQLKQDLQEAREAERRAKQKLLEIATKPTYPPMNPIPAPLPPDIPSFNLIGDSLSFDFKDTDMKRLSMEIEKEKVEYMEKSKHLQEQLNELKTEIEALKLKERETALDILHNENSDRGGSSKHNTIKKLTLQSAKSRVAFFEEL
# Results are given in words; binding and its absence hold for the method and conditions named. In cells and extracts the contact can be indirect.
# Target: T1, RICH1 (UniProt Q68EM7)
# T1 sequence: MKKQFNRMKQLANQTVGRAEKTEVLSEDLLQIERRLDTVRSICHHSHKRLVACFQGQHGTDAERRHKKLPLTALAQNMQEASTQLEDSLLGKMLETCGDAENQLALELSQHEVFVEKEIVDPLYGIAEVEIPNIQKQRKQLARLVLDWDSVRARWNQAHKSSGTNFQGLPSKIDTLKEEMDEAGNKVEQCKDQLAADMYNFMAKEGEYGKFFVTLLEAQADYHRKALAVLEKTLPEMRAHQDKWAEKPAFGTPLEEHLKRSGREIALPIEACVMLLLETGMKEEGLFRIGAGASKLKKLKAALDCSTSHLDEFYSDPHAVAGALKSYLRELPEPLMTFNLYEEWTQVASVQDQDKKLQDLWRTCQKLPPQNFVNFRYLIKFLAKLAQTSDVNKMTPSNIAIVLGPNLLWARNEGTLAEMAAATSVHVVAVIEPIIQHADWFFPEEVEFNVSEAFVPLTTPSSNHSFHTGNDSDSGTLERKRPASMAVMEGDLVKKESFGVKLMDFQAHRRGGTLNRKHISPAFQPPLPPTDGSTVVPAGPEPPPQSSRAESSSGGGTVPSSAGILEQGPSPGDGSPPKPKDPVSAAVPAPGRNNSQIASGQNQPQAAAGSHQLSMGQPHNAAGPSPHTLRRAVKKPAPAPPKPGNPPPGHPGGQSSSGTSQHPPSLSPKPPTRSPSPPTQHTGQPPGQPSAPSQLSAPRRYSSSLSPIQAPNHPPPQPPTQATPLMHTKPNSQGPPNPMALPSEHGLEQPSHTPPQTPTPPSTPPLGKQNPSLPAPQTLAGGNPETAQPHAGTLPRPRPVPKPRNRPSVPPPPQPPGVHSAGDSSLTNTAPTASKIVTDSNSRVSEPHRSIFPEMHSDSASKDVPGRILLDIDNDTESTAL
# Experiment: co-IP; BT549 lysates (parental, control, RICH1- or RICH1△BAR-overexpressing cells); NP-40 lysis buffer (20 mM Tris-HCl, 150 mM NaCl, 0.5% NP-40, 20% glycerol); 4 μg antibody and 50 μl protein A/G magnetic beads; western blotting
substance,measurement,value
Merlin (from UniProt P35240 1-595),binding,no binding
